{"source": "PubChem BioAssay AID1347423", "about": "(Functional Genomics Laboratory (NCATS/FGL), 2020)", "note": "About 210 (0.4%) of roughly 52,000 sequences were called active.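 Rule for the calls: active = gene whose silencing raises cell survival under the drug, median off-target-corrected z-score across its silencing RNAs 2 or more; inactive = the rest.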 The list shows a part of the results.", "data": [{"assay": "Resistance to Poly (ADP-Ribose) Polymerase inhibitor: Gene Identification via Genome-wide siRNA Screen", "conditions": "mouse BRCA2 R2336H ES cells, olaparib, CellTiter-Glo viability; active compounds read high", "outline": "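Genome-wide siRNA screen (3 siRNAs/gene, 20 nM) in mouse ES cells carrying hypomorphic BRCA2 R2336H; olaparib 500 nM added 48 h post-transfection, CellTiter-Glo viability 72 h later. Normalized to plate-median negative control; MAD z-scores, gene median, seed-adjusted.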", "values": [{"sequence": "GGAGUGAUAGUCAUCAAUGTT against Olfr357", "z-score": "inactive: 2.03"}, {"sequence": "GGAGACCAGGAAUAAUUGUTT against 5330438I03Rik", "z-score": "inactive: -0.139"}, {"sequence": "GGGCAUAGAUUAGUCUUUATT against Ing1l", "z-score": "inactive: -2.01"}, {"sequence": "GGACCAACGUGCAGAAAUGTT against Metrn", "z-score": "inactive: 0.653"}, {"sequence": "GGCCAUCGUCUUGAAGAAGTT against Cdca5", "z-score": "inactive: -1.42"}, {"sequence": "GGACUUUAGAGUUCGCCAUTT against BC026778", "z-score": "inactive: 1.19"}, {"sequence": "GCGAACUCAAACAGUUAAATT against Clca3", "z-score": "inactive: -0.354"}, {"sequence": "CCUUUAUGGGACACUAUUUTT against Alb1", "z-score": "inactive: -2"}, {"sequence": "CCCAGAGCUGUUAUUUAAATT against Ripk3", "z-score": "inactive: 0.0114"}, {"sequence": "GGAAACAAAUGAGUUGCUGTT against Stx12", "z-score": "inactive: -0.369"}, {"sequence": "CUGCGAGGCUUUUUAAAUGTT against Prr7", "z-score": "inactive: 0.0676"}, {"sequence": "GGUAUUGGUCCAAUUUUUCTT against Gng7", "z-score": "inactive: -0.642"}, {"sequence": "GGAAAGCUUUCUAUUACAATT against BB114266", "z-score": "inactive: -1.24"}, {"sequence": "GCCGUUUAAACAGUUCAACTT against T2bp", "z-score": "inactive: 0.212"}, {"sequence": "GGUGUGAACUCCUUCCUGGTT against Dpysl4", "z-score": "inactive: 2.28"}, {"sequence": "CGAGAAGAUAUUUAAAGAGTT against Myo10", "z-score": "inactive: 0.642"}, {"sequence": "CCCUGAUGAAUAAGGACUCTT against Kif17", "z-score": "inactive: 0.643"}, {"sequence": "GGUCACCUGGGUAUUUAUGTT against Tead3", "z-score": "inactive: 0.596"}, {"sequence": "GGAGAAGAAGGAGAGGAUGTT against Myo18a", "z-score": "inactive: -2.22"}, {"sequence": "GGCUUGAUGGGCUUUUUGCTT against Ndufb8", "z-score": "inactive: 0.31"}, {"sequence": "GGUCUUCCUUGAACAUCAGTT against Fev", "z-score": "inactive: 0.96"}, {"sequence": "GGAUCUCAAUGUUCACUUGTT against Bpil1", "z-score": "inactive: -1.3"}, {"sequence": "GUCCGUCUCGGAGAAAUGUTT against BC018462", "z-score": "inactive: -0.175"}, {"sequence": "GGCACAAAUUUUAUGCCUGTT against 4931440N07Rik", "z-score": "inactive: 0.336"}, {"sequence": "GCUAGUAUUGAGCAACAACTT against Rnh1", "z-score": "inactive: 1.08"}, {"sequence": "GCUCAGUUUAUACCAAAAUTT against Api5", "z-score": "inactive: -2.14"}, {"sequence": "GGUAAAGAAAGACGACCACTT against Ppap2c", "z-score": "inactive: -0.518"}, {"sequence": "GCUCAUACAUGGUGGACUATT against 1700011F03Rik", "z-score": "inactive: -2.21"}, {"sequence": "GGGAGAACUUAGCACGAAUTT against Polr2h", "z-score": "inactive: -1.02"}]}]}
